Results: patent publication US7732416B2, “Avermectins substituted in the 4″-position having pesticidal properties” (Merial Limited, priority 2001, dated 2010)
Some of these results come from one statement about several compounds together.

Columns and labels:
Format in all cases: in vivo
[1] = test system: Spodoptera littoralis; experiment: Example B1 Activity against Spodoptera littoralis (sprayed soya bean plants); conditions: 12.5 ppm spray liquor, first-stage caterpillars, 3 days
[2] = test system: Spodoptera littoralis; experiment: Example B2 Activity against Spodoptera littoralis, systemic (maize seedlings); conditions: maize seedlings 6 days in test solution, L1 larvae on cut leaves, 4 days
[3] = test system: Heliothis virescens; experiment: Example B3 Activity against Heliothis virescens (eggs on filter paper); conditions: 0.8 ml test solution on 0- to 24-hour-old eggs, evaluation after 6 days
[4] = test system: Plutella xylostella; experiment: Example B4 Activity against Plutella xylostella caterpillars (sprayed cabbage plants); conditions: 12.5 ppm spray liquor, first-stage caterpillars, 3 days
[5] = test system: Tetranychus urticae; experiment: Example B7 Activity against Tetranychus urticae (sprayed bean plants); conditions: 12.5 ppm spray liquor, mixed population, 25° C., 6 days
[6] = test system: Diabrotica balteata; experiment: Example B6 Activity against Diabrotica balteata (sprayed maize seedlings); conditions: 12.5 ppm spray liquor, second-stage larvae, 6 days

Measured: reduction in the pest population

CCC(C)C1OC2(C=CC1C)CC1CC(CC=C(C)C(OC3CC(OC)C(OC4CC(OC)C(NCc5c6ccccc6cc6ccccc56)C(C)O4)C(C)O3)C(C)C=CC=C3COC4C(O)C(C)=CC(C(=O)O1)C34O)O2 (centres unmarked) [1.001]
more than 80%: [1] | [2] | [3] | [4] | [5]

CCC(C)C1OC2(C=CC1C)CC1CC(CC=C(C)C(OC3CC(OC)C(OC4CC(OC)C(NC(C)CC(=O)Nc5ccccc5)C(C)O4)C(C)O3)C(C)C=CC=C3COC4C(O)C(C)=CC(C(=O)O1)C34O)O2 (centres unmarked) [1.139]
more than 80%: [1] | [2] | [3] | [6] | [5]

CCC(C)C1OC2(C=CC1C)CC1CC(CC=C(C)C(OC3CC(OC)C(OC4CC(OC)C(NC5CCC(C)C5)C(C)O4)C(C)O3)C(C)C=CC=C3COC4C(O)C(C)=CC(C(=O)O1)C34O)O2 (centres unmarked) [1.079]
more than 80%: [1] | [2] | [3] | [6] | [5]

CCC(C)C1OC2(C=CC1C)CC1CC(CC=C(C)C(OC3CC(OC)C(OC4CC(OC)C(NCc5[nH]cnc5C)C(C)O4)C(C)O3)C(C)C=CC=C3COC4C(O)C(C)=CC(C(=O)O1)C34O)O2 (centres unmarked) [1.026]
more than 80%: [1] | [2] | [3] | [4] | [5]

CCOC(=O)C1CCC(NC2C(C)OC(OC3C(C)OC(OC4C(C)=CCC5CC(CC6(C=CC(C)C(C(C)CC)O6)O5)OC(=O)C5C=C(C)C(O)C6OCC(=CC=CC4C)C56O)CC3OC)CC2OC)CC1 (centres unmarked) [1.136]
more than 80%: [1] | [2] | [3] | [6] | [5]

CCC(C)C1OC2(C=CC1C)CC1CC(CC=C(C)C(OC3CC(OC)C(OC4CC(OC)C(NCC(=O)OC)C(C)O4)C(C)O3)C(C)C=CC=C3COC4C(O)C(C)=CC(C(=O)O1)C34O)O2 (centres unmarked) [1.045]
more than 80%: [1] | [2] | [3] | [6] | [5]

CCOC(=O)CC(C)NC1C(C)OC(OC2C(C)OC(OC3C(C)=CCC4CC(CC5(C=CC(C)C(C(C)CC)O5)O4)OC(=O)C4C=C(C)C(O)C5OCC(=CC=CC3C)C45O)CC2OC)CC1OC (centres unmarked) [1.080]
more than 80%: [1] | [2] | [3] | [6] | [5]

CCC(C)C1OC2(C=CC1C)CC1CC(CC=C(C)C(OC3CC(OC)C(OC4CC(OC)C(N(C)Cc5ccc(F)c(F)c5F)C(C)O4)C(C)O3)C(C)C=CC=C3COC4C(O)C(C)=CC(C(=O)O1)C34O)O2 (centres unmarked) [2.035]
more than 80%: [1] | [2] | [3] | [4] | [5]

CCC(C)C1OC2(C=CC1C)CC1CC(CC=C(C)C(OC3CC(OC)C(OC4CC(OC)C(NC5CCN(C(=O)c6ccccc6)CC5)C(C)O4)C(C)O3)C(C)C=CC=C3COC4C(O)C(C)=CC(C(=O)O1)C34O)O2 (centres unmarked) [1.148]
more than 80%: [1] | [2] | [3] | [6] | [5]

CCC(C)C1OC2(C=CC1C)CC1CC(CC=C(C)C(OC3CC(OC)C(OC4CC(OC)C(NCC(=O)OC(C)(C)C)C(C)O4)C(C)O3)C(C)C=CC=C3COC4C(O)C(C)=CC(C(=O)O1)C34O)O2 (centres unmarked) [1.060]
more than 80%: [1] | [2] | [4] | [5]

CCC(C)C1OC2(C=CC1C)CC1CC(CC=C(C)C(OC3CC(OC)C(OC4CC(OC)C(NC(C)C5CC5)C(C)O4)C(C)O3)C(C)C=CC=C3COC4C(O)C(C)=CC(C(=O)O1)C34O)O2 (centres unmarked) [1.071]
more than 80%: [1] | [2] | [3] | [6] | [5]

CCOC(=O)CCC(C)N[C@@H]1[C@H](C)O[C@@H](O[C@H]2[C@H](C)O[C@@H](O[C@@H]3/C(C)=C/C[C@@H]4C[C@@H](C[C@]5(C=C[C@H](C)[C@@H](C(C)CC)O5)O4)OC(=O)[C@@H]4C=C(C)[C@@H](O)[C@H]5OC/C(=C\C=C\C3C)[C@]54O)C[C@@H]2OC)C[C@@H]1OC (some centres unmarked) [1.109]
more than 80%: [1] | [2] | [3] | [6] | [5]

CCC(C)C1OC2(C=CC1C)CC1CC(CC=C(C)C(OC3CC(OC)C(OC4CC(OC)C(N(C)Cc5ccc([N+](=O)[O-])cc5)C(C)O4)C(C)O3)C(C)C=CC=C3COC4C(O)C(C)=CC(C(=O)O1)C34O)O2 (centres unmarked) [2.056]
more than 80%: [1] | [2] | [3] | [6] | [5]

CCC(C)[C@H]1O[C@]2(C=C[C@@H]1C)C[C@@H]1C[C@@H](C/C=C(\C)[C@@H](O[C@H]3C[C@H](OC)[C@@H](O[C@H]4C[C@H](OC)[C@H](N(C)Cc5ccc(C(=O)OC)cc5OC)[C@H](C)O4)[C@H](C)O3)C(C)/C=C/C=C3\CO[C@@H]4[C@H](O)C(C)=C[C@@H](C(=O)O1)[C@]34O)O2 (some centres unmarked) [2.076]
more than 80%: [1] | [2] | [3] | [6] | [5]

CCC(C)C1OC2(C=CC1C)CC1CC(CC=C(C)C(OC3CC(OC)C(OC4CC(OC)C(NC(C)C5(C)CC5)C(C)O4)C(C)O3)C(C)C=CC=C3COC4C(O)C(C)=CC(C(=O)O1)C34O)O2 (centres unmarked) [1.048]
more than 80%: [1] | [2] | [3] | [6] | [5]

CCC(C)C1OC2(C=CC1C)CC1CC(CC=C(C)C(OC3CC(OC)C(OC4CC(OC)C(N(C)Cc5ccccc5F)C(C)O4)C(C)O3)C(C)C=CC=C3COC4C(O)C(C)=CC(C(=O)O1)C34O)O2 (centres unmarked) [2.052]
more than 80%: [1] | [2] | [3] | [6] | [5]

CCC(C)C1OC2(C=CC1C)CC1CC(CC=C(C)C(OC3CC(OC)C(OC4CC(OC)C(NC(C)CCC(=O)O)C(C)O4)C(C)O3)C(C)C=CC=C3COC4C(O)C(C)=CC(C(=O)O1)C34O)O2 (centres unmarked) [1.074]
more than 80%: [1] | [2] | [3] | [6] | [5]

C=CC(=O)NC(C)(C)CC(C)NC1C(C)OC(OC2C(C)OC(OC3C(C)=CCC4CC(CC5(C=CC(C)C(C(C)CC)O5)O4)OC(=O)C4C=C(C)C(O)C5OCC(=CC=CC3C)C45O)CC2OC)CC1OC (centres unmarked) [1.137]
more than 80%: [1] | [2] | [3] | [6] | [5]

CCC(C)[C@H]1O[C@]2(C=C[C@@H]1C)C[C@@H]1C[C@@H](C/C=C(\C)[C@@H](O[C@H]3C[C@H](OC)[C@@H](O[C@H]4C[C@H](OC)[C@H](NC(C)CCC(C)=O)[C@H](C)O4)[C@H](C)O3)C(C)/C=C/C=C3\CO[C@@H]4[C@H](O)C(C)=C[C@@H](C(=O)O1)[C@]34O)O2 (some centres unmarked) [1.047]
more than 80%: [1] | [2] | [3] | [6] | [5]

CCC(C)[C@H]1O[C@]2(C=C[C@@H]1C)C[C@@H]1C[C@@H](C/C=C(\C)[C@@H](O[C@H]3C[C@H](OC)[C@@H](O[C@H]4C[C@H](OC)[C@H](NC(C)CCCC(=O)OC)[C@H](C)O4)[C@H](C)O3)C(C)/C=C/C=C3\CO[C@@H]4[C@H](O)C(C)=C[C@@H](C(=O)O1)[C@]34O)O2 (some centres unmarked) [1.111]
more than 80%: [1] | [2] | [3] | [6] | [5]

CCC(C)C1OC2(C=CC1C)CC1CC(CC=C(C)C(OC3CC(OC)C(OC4CC(OC)C(NC(C)COC)C(C)O4)C(C)O3)C(C)C=CC=C3COC4C(O)C(C)=CC(C(=O)O1)C34O)O2 (centres unmarked) [1.069]
more than 80%: [1] | [2] | [3] | [6] | [5]
